Results on ten molecules are retold here after PMC10312964.

Chains of the proteins cited; added tags and fusions are not shown. Lines headed by an entry give the natural chain unless they say otherwise; changes in a name come on top.
UniProt Q4X158: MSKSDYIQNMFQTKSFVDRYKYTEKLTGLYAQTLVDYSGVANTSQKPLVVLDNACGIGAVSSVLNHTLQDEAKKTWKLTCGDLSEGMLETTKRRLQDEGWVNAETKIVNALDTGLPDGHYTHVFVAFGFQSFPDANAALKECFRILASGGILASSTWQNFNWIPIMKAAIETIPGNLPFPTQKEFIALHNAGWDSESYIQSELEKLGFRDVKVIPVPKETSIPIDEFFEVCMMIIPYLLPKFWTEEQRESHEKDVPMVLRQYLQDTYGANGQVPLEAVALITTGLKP
UniProt Q4WI09: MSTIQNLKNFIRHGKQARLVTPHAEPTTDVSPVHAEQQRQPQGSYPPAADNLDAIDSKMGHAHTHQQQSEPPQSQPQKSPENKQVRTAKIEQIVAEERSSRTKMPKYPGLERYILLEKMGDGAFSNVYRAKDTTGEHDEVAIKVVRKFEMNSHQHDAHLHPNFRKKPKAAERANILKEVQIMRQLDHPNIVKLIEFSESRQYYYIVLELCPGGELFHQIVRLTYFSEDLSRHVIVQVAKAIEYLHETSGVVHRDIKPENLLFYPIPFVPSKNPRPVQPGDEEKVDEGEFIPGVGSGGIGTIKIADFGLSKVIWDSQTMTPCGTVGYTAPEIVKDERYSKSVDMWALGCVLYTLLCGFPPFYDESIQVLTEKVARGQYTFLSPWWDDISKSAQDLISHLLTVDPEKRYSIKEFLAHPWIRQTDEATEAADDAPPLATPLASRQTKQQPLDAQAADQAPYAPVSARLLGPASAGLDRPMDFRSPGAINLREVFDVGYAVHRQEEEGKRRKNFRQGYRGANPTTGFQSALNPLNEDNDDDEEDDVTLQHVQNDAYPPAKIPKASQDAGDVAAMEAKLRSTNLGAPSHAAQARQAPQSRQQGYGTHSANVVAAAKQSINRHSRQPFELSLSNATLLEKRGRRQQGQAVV
UniProt Q4X0F2: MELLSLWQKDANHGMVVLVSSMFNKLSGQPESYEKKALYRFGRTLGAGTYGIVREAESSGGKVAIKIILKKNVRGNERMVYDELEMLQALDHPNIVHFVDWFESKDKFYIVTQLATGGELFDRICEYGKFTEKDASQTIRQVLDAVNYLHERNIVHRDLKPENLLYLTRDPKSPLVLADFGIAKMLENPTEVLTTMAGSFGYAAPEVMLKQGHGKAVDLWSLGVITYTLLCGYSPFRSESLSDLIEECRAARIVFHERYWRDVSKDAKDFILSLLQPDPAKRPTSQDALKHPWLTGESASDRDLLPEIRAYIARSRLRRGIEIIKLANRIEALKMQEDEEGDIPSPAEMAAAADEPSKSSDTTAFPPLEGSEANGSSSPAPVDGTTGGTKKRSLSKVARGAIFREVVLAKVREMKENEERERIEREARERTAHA
UniProt Q4WY97: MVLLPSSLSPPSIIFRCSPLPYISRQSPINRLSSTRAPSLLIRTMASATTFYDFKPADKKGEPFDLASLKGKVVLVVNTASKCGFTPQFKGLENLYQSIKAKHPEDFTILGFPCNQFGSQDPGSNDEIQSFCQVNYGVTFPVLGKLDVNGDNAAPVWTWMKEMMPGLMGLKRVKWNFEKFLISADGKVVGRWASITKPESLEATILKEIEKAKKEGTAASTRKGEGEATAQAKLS
UniProt Q4WN17: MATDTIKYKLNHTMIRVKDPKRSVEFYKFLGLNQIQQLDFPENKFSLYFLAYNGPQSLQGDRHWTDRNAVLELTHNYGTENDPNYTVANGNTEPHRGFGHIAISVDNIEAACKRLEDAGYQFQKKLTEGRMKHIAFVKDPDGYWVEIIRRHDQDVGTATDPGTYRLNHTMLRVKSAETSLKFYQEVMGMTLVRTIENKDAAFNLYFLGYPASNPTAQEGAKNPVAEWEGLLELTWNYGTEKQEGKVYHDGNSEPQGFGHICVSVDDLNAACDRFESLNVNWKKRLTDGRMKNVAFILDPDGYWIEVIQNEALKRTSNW
UniProt Q4WM81: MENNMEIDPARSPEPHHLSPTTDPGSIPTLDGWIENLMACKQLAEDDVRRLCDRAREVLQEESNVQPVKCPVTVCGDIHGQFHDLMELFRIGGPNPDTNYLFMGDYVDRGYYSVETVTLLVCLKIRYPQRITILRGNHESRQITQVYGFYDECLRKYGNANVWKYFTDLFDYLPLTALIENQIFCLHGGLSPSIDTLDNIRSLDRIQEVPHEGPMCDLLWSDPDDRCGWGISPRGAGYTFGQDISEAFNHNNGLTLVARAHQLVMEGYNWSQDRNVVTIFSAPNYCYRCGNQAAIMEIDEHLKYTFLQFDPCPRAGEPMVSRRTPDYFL
UniProt Q4WXF4: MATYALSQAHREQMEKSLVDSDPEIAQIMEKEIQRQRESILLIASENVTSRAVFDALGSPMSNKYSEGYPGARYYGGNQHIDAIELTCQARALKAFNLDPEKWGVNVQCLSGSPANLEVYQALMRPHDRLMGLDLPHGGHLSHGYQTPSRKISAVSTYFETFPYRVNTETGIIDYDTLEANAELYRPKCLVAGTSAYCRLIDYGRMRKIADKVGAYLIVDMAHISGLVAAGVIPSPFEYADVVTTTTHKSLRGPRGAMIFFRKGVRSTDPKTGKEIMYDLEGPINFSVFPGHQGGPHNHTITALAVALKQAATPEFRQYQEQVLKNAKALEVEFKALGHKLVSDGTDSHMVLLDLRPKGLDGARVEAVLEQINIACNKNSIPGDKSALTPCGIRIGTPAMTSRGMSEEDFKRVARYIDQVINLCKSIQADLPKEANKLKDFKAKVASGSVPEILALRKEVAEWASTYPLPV
UniProt Q4WW00: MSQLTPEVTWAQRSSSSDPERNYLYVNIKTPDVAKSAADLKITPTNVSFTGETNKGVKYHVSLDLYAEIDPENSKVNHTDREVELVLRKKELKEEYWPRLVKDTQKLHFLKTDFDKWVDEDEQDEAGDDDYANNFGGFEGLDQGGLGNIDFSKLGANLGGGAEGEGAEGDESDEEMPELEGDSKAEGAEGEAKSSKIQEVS

The target in test [1] is GtmA:GFP (Aspergillus fumigatus) (UniProt Q4X158). As to the kind of experiment: affinity purification with mass spectrometry.
Test [2] deals with T1, GliT:GFP (Aspergillus fumigatus) (UniProt E9RAH5).
T1 sequence: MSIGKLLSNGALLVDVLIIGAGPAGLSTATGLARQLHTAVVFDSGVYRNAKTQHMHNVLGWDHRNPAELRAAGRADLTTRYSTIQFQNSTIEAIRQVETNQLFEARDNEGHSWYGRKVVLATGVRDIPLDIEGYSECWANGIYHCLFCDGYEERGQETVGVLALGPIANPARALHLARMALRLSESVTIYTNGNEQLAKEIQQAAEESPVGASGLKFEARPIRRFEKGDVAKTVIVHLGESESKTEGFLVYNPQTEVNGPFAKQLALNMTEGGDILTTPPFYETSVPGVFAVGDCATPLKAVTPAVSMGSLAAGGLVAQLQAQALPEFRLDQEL
The test is described as follows: affinity purification with mass spectrometry.

Results are given in words; binding and its absence hold for the method and conditions named. In cells and extracts the contact can be indirect. These calls come from enrichment with a bait or labelling near it, and not all partners need be listed. For some of these results: Where a sequence is shown, tags or fusion partners need not be part of it.

On to “Calcium/calmodulin-dependent protein kinase (Afu2g03490) (from UniProt Q4WI09) (enzyme)”, for which the binding result in test [1] and in test [2] was “binds” throughout.

“Calcium/calmodulin-dependent protein kinase (Afu2g13680) (from UniProt Q4X0F2) (enzyme)”: the binding result in test [1] is on record as “binds”.

“Glutathione peroxidase; peroxiredoxin (Afu3g12270) (from UniProt Q4WY97) (enzyme)”: in test [2], the binding result is recorded as “binds”.

For “Lactoylglutathione lyase (Afu6g07940) (from UniProt Q4WN17) (enzyme)”, the binding result in test [2] was “binds”.

Take “PphB, protein serine/threonine phosphatase activity (from UniProt Q4WM81) (enzyme)”: the binding result in test [1] is on record as “binds”.

Consider “Serine hydroxymethyltransferase (Afu3g09320) (from UniProt Q4WXF4) (enzyme)”, for which the binding entry in test [1] and in test [2] was “binds” throughout.

Turning to “Wos2, Hsp90 binding co-chaperone (from UniProt Q4WW00)”, the binding entry in test [2] was “binds”.

B1: PtcB, type 2C protein phosphatase (PP2C) involved in dephosphorylation of SakA MAP kinase (enzyme, UniProt Q4WTH5 1-429)
chain: MRTCGTSSEGQDECCLYGLSAMQGWRISMEDAHAAVLDLQAKSTGGSEKPTDPDKRLAFFGVYDGHGGDKVALFAGENVHKIVAKQEAFAKGDIEQALKDGFLATDRAILEDPKYEEEVSGCTAAVSVISKNKIWVANAGDSRSVLGVKGRAKPLSFDHKPQNEGEKARISAAGGFVDFGRVNGNLALSRAIGDFEFKKSPELSPEQQIVTAYPDVTVHEVTDDDEFLVIACDGIWDCQSSQSVVEFVRRGIAAKQELYRICENMMDNCLASNSETGGVGCDNMTMIIIGLLNGKTKEEWYNQISERVANGDGPCAPPEYGKSEFRGPGIRNQFEETPDNYDLENDRSRGFSVRSGRIILLGDGTELIPEQNDEELFDQREENRDVTNHLQHDKAEETSTAANLSESPSSANKNSSGSGTEATEKSASS
B1: the binding result in test [1] is “binds”.

B2: GliG, glutathione S-transferase encoded in the gliotoxin biosynthetic gene cluster (enzyme, UniProt A4GYZ0 1-240)
chain: MSERPSDLVVNRLVLFVVKGTATSTHNTVKPLILLEELGVPHDIYVVEKVSAPWFSEINPHKMVPAILDRSPDGRDTLRAWESTSTLMYIADAYDKDGTLGGRNVQERSEINNWLTLHTAALGPTAKYWLYFYKLHPEKLPKTIEKLRSNITVQYDILERRLNEPGQQYLALKDRPTIADIATLPFAMKSTAELFGLEFEKWPKLQEWSVRMGEREAVKRAWQRVAGFGHGEKEYGMLEA
For the molecule B2, the binding entry in test [1] was “binds”.

B3: GliN, methyltransferase, encoded in the putative gliotoxin biosynthetic gene cluster (enzyme, UniProt Q4WMJ1 1-282)
chain: MTVLPDSENGYLLNYEDQEKRRMNMQHDLIKTYMGKLILAPLPFDQPNLRVLDSGTFNGLWLEDASTLLQSPTLVGTDVSPTAFPAKRPPNTEFHVQSISDPWPTEWRDSFDLVHQKLVIACVPPDEGRQALYRLIDLAKPGTGWVQFTEGSLEHLTPEQRKQYPVLARFQSLVAEMLPHFRWNPRPGKLVRQWLEEYGLQEVQEKVMEIPIGAGNPDPKLGEMAKQNMLEVVSNFRTAATRLPDGTGIRAEDFDPILRDIKVEFETVGGILRFNTVWGRRP
Take B3: the binding entry in test [1] and in test [2] was “binds” each time.
